PubChem BioAssay AID1508588 – Peter MacCallum Cancer Centre, 2020
This is one part, drawn at random, of about 18,000 reagents. Over the whole deposit, 790 (4.4%) were called active. 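Calls rest on a combination of fold-change classes in drug and vehicle arms, not all shown here.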 Entries without a mark were called inactive. Reagent sequences are not shown.

- Purpose: 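Knock-downs boosting vemurafenib effects on melanoma cell growth or lactate release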 (primary screen)
- System: human WM266.4 melanoma cells (BRAF V600 mutant)
- Reagent: siRNA pool against human genes, 40 nM
- Duration: 96 h from transfection to read-out
- Conditions: vemurafenib 300 nM (about IC25), added 48 h after transfection, for 48 h; comparison arm got DMSO vehicle only
- Measured: 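Cell gain (DAPI nuclei at end minus before drug, mean of two replicates) and medium lactate by absorbance per cell, both as ratio to non-targeting siRNA, also grouped into fold-change classes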
- Direction: cell gain with vemurafenib: higher = more cell gain than with non-targeting siRNA; lactate per cell with vemurafenib: higher = more lactate made per cell
- Call rule: 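Enhancement is called by pairing each knock-down's vehicle-arm and drug-arm fold-change classes for viability or glycolysis; which class combinations qualify is not given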
- Meaning of the calls: active = enhances vemurafenib effect; inactive = no enhancement seen

OR4K17 (olfactory receptor family 4 subfamily K member 17): cell gain with vemurafenib = 0.19; lactate per cell with vemurafenib = 1.74
DNM3 (dynamin 3): cell gain with vemurafenib = 0.69; lactate per cell with vemurafenib = 0.82
BRD4 (bromodomain containing 4): cell gain with vemurafenib = 0.32; lactate per cell with vemurafenib = 0.86
COL11A2 (collagen type XI alpha 2 chain): cell gain with vemurafenib = 0.54; lactate per cell with vemurafenib = 1.92
GTF2H4 (general transcription factor IIH subunit 4): cell gain with vemurafenib = 0.43; lactate per cell with vemurafenib = 1.37
ZNF616 (zinc finger protein 616): cell gain with vemurafenib = 0.79; lactate per cell with vemurafenib = 0.79
NATD1 (N-acetyltransferase domain containing 1): cell gain with vemurafenib = 1.4; lactate per cell with vemurafenib = 0.98
OR10G3 (olfactory receptor family 10 subfamily G member 3): cell gain with vemurafenib = 0.76; lactate per cell with vemurafenib = 0.94
RPL30 (ribosomal protein L30): cell gain with vemurafenib = 0; lactate per cell with vemurafenib = 1.66
CCL14 (C-C motif chemokine ligand 14): cell gain with vemurafenib = 0.51; lactate per cell with vemurafenib = 1.16
PHC2 (polyhomeotic homolog 2): cell gain with vemurafenib = 0.53; lactate per cell with vemurafenib = 2
FMOD (fibromodulin): cell gain with vemurafenib = 0.45; lactate per cell with vemurafenib = 1.64
KCNK12 (potassium two pore domain channel subfamily K member 12): cell gain with vemurafenib = 0.95; lactate per cell with vemurafenib = 0.74
CHPF (chondroitin polymerizing factor): cell gain with vemurafenib = 0.71; lactate per cell with vemurafenib = 0.68
SNAPIN (SNAP associated protein): cell gain with vemurafenib = 0.42 (active); lactate per cell with vemurafenib = 0.28
NDUFS1 (NADH:ubiquinone oxidoreductase core subunit S1): cell gain with vemurafenib = 0.4; lactate per cell with vemurafenib = 1.38

2 neighbouring records from above:
CCL14 (C-C motif chemokine ligand 14): cell gain with vemurafenib = 0.51; lactate per cell with vemurafenib = 1.16
PHC2 (polyhomeotic homolog 2): cell gain with vemurafenib = 0.53; lactate per cell with vemurafenib = 2
